This note sets out measurements from the supplement of paper PMC8846439.

Structures can show the parent of a compound that is named as a salt. This is one part of the list. Repeats are few or missing, and single values can be far off.

The assay has as its system Trypanosoma brucei brucei bloodstream form L262P (kDNA-independent). As to the kind of experiment: viability Z-score (nuclei count per well, median-polish normalised, relative to plate distribution); higher = more viable parasites (negative = growth inhibition). Conditions: 4 days; compound concentration: 10 µM (some Prestwick/PKE rows may be 1 µM / not distinguished).
Turning to `O=C(NC/C1=C/C=C(/[Cl])C=C1)[C@@]3([H])OC=2C=CC=CC=2OC3`, the “viability Z-score” value is -3.72.
In the case of `CC(Cn1nc([N+](=O)[O-])cc1C)=NNC(=O)c1cc(Br)n(C)n1`, the “viability Z-score” value is -3.69.
Then `CN(C)CCCn1cc(C2=C(c3c[nH]c4ccccc34)C(=O)NC2=O)c2ccccc21`, with -3.71; and `O=C(N/C1=N/C=CC(C)=C1)CO/C2=C/C=C(/[Cl])C=C2`, with -3.05; and `CN([C@H](Cc1ccc(OS(=O)(=O)c2cccc3cnccc23)cc1)C(=O)N1CCN(c2ccccc2)CC1)S(=O)(=O)c1cccc2cnccc12`, with -3.86.
Regarding `CCOC(=O)CN1N=C(c2ccc(Cl)s2)CSC1=O`, the “viability Z-score” value is -1.47.
Then `CC(C)(C)NCC(O)c1cc(O)cc(O)c1.CC(C)(C)NCC(O)c1cc(O)cc(O)c1` (stereo not given) [Terbutaline hemisulfate], with -1.33; and `Nc1nc(CN2CCN(Cc3ccccc3)CC2)nc(N2CCCc3ccccc32)n1`, with -4.78; and `CN1CCc2c(nnn2-c2ccccc2)C1`, with -5.49.
The figure for `Cc1ccc(C(=O)c2cc(/C=C/C(=O)NO)n(C)c2)cc1` is -3.85; for `O=[S](=O)(C=1/C=C(/[Br])C=C2CCN(C=12)C(=O)C3([H])CC3)N4CCN(CC4)C5=CC=CC=C5` it is -4.95.
Take `O=[S](=O)(C1=CC(=C/C=C1/OC)C2=NN=NN2CC)N3CCCCC3`: the “viability Z-score” value is -4.89.
The figure for `CNC(=O)CN(c1cccc(C(F)(F)F)c1)S(=O)(=O)c1ccccc1` is -5.01.
Then `O=[S](=O)(N/C2=C(\O)N1N=CN=C1/N=C2/C)C=4C=C3C(C)=C(OC3=CC=4)C(=O)OCC`, with -5.22; and `C1CCC(C(CC2CCCCN2)C2CCCCC2)CC1` (stereo not given) [Perhexiline maleate], with -1.31.
Consider `[F]C([F])([F])C4=C/C=C(/CN3CCN(CC=2C=C1OCOC1=CC=2)CC3)C=C4`, for which the “viability Z-score” value is -2.6.
Take `COc1ccc(N2CCN([C@@H](CNS(C)(=O)=O)c3cccnc3)CC2)cc1`: the “viability Z-score” value is -3.65.
Regarding `O=C1NC(=NC(O)=C1NC(=O)C)[S]CC(=O)N([C@@]2([H])CCCCC2)[C@@]3([H])CCCCC3`, the “viability Z-score” value is -1.1.
Then `OC=2N=C1C=CC=CC1=NC=2/C3=C/NC=4C=CC=CC3=4`, with -3.29; and `CC(C)C[C@@H](C=O)NC(=O)[C@H](CC(C)C)NC(=O)[C@H](CC(C)C)NC(=O)OCc1ccccc1`, with -5.54.
Regarding `c1ccc2sc(N3CCOCC3)nc2c1`, the “viability Z-score” value was -3.97.
Then `O=C(O)C[S]/C1=C(/NC=2C=CC=CC1=2)C3=CC=CC=C3`, with -2.69; and `COc1cc2c(cc1OC)[C@@]1(C)N(CC2)C(=O)OC1(C)C`, with -1.81; and `O=C(N/C2=N/C=1CCCCC=1[S]2)CN3/N=C(/C)C=C3C`, with -5.75.
`O=C2C=C(/N=C(/CC(=O)C=1C=CC([Cl])=CC=1)N2C)CCC`: the “viability Z-score” value is -1.18.
The figure for `C/C1=C/C[C@@]2([H])C[C@]1([H])[C@@]([H])(OC2)C=4/C=[N+](/CC=3C=CC=CC=3)C=CC=4` is -3.56; for `COC(=O)[C@@H]1C(c2ccccc2)=NN(C)C1(C)C` it is -8.19.
In the case of `N#C/C2=C(\N)OC=1N=C/N=C(/O)C=1[C@@]2([H])C3=C[S]C=C3`, the “viability Z-score” value is -5.54.
Then `CNC1(C)C(=O)c2ccccc2C1=O`, with -1.73; and `CCCCC(CC)CN=C(N)NC(N)=NCCCCCCN=C(N)NC(N)=NCC(CC)CCCC.Cl.Cl` (stereo not given) [Alexidine dihydrochloride], with -1.72; and `N#C/C4=C3\N=NC(NC=1N/N=C(/C)C=1C=2C=CC=CC=2)=C(C)N3/N=C4/C=5C=CC=CC=5`, with -5.68.
Regarding `N#C/C2=C/C=C(/NC(=O)N/C1=C/C=C(/C#N)C=C1)C=C2`, the “viability Z-score” value was -2.01.
The figure for `O=C(NC=1C=CC=NC=1[S]/C2=C/C=C(/C)C=C2)C=3C=C(C=C(C=3)C([F])([F])[F])C([F])([F])[F]` is -2.48; for `O=C(O)C1=CC(=C/C=C1/C(=O)O)C(=O)C2=CC=CC=C2` it is -4.36.
With `O=C(N/C1=C/C=C(C=C1)OCCCC)C=2N=CC(C)=NC=2`, the “viability Z-score” value is -2.24.
The figure for `O=C(N/C1=N/N=C(C[S]1)C2=C/C=C(/C)C=C2)C[S]C=3/N=C(/C)C=C(C)N=3` is -3.12; for `O=[S](=O)(C1=C(C=NC=2C=CC([F])=CC1=2)C(=O)C3=CC=CC=C3)C4=C/C=C(/C)C=C4` it is -2.96; for `O=C(CC=1[S]C=CC=1)N3CCC2=CC(OC)=C(C=C2[C@@]3([H])CO/C4=C/C=C(C=C4)C(=O)OC)OC` it is -6.07.
With `CCN(CC)CC(=O)N(CC(=O)Nc1c(C)cc(C)cc1C)C1CCCCC1`, the “viability Z-score” value was -5.61.
As for `C=CC[C@H]1C[C@@H](COC(c2ccccc2)(c2ccccc2)c2ccccc2)OC1=O`, the “viability Z-score” value is -6.28.
